Experimental data published in PubChem BioAssay AID236 (DTP/NCI, 2004).
The list shows only some results of the screen, not a fair sample: its compounds were picked by chemical class. Not every dose and run of a compound is shown. T/C is the treated group as % of the vehicle group. For survival time, this PubChem deposit counts one and a half times the control or more as active, and values a quarter to a half above the control carry no call in these data; other NCI protocols may use other cut-offs. Some T/C values are marked as having no survivor count here; that says nothing about deaths at the dose. Schedules are NCI's codes, read here as Q, the interval in days (D) or hours (H), X, the number of doses. Some entries were tested several times; their values stand side by side, smallest first.

Test system: AK4 lymphoid leukemia ip, C3AKF1 mice, survival
Assay: NCI In Vivo Anticancer Drug Screen. Data for tumor model AK4 Lymphoid Leukemia (intraperitoneal) in C3AKF1 (CHKRF1) mice
Conditions: T/C endpoint: median survival time, schedule: Q01DX010 (ip), vehicle: saline, higher T/C = longer survival
Description: The antitumor activity of compounds was measured in mice bearing transplantable tumors. Survival or tumor size were measured and the results are expressed as the measurement made in the treated group (T) divided by the measurement made in the vehicle treated control group (C). The tumor model used in this assay is AK4 Lymphoid Leukemia (intraperitoneal) in C3AKF1 (CHKRF1) mice

NC(Cc1ccccc1N(CCCl)CCCl)C(=O)O (stereo not given)
T/C (dose: 0.25 mg/kg/injection): 110 [survivor count not shown] and 127 % of control [survivor count not shown]
T/C (dose: 0.5 mg/kg/injection): 140 [survivor count not shown] and 183 % of control [survivor count not shown]
T/C (dose: 1.0 mg/kg/injection): 133 [survivor count not shown] and 170 % of control [survivor count not shown]
T/C (dose: 2.0 mg/kg/injection): 130 % of control [survivor count not shown]

ClCCN(CCCl)Cc1nc2ccccc2[nH]1
T/C (dose: 1.25 mg/kg/injection): 100 % of control [survivor count not shown]
T/C (dose: 2.5 mg/kg/injection): 94 % of control [survivor count not shown]
T/C (dose: 5.0 mg/kg/injection): 122 % of control [survivor count not shown]
T/C (dose: 10.0 mg/kg/injection): 105 % of control [survivor count not shown]

ClCCNCCCl
T/C (dose: 18.8 mg/kg/injection): 111 % of control [survivor count not shown]
T/C (dose: 37.5 mg/kg/injection): 133 % of control [survivor count not shown]
T/C (dose: 75.0 mg/kg/injection): 138 % of control [survivor count not shown]

NC1CCCCC1.NP(=O)(O)N(CCCl)CCCl
T/C (dose: 15.6 mg/kg/injection): 131 [survivor count not shown] and 155 % of control [survivor count not shown]
T/C (dose: 31.3 mg/kg/injection): 137 [survivor count not shown] and 144 % of control [survivor count not shown]
T/C (dose: 62.5 mg/kg/injection): 131 [survivor count not shown] and 161 % of control [survivor count not shown]
T/C (dose: 125.0 mg/kg/injection): 88 [survivor count not shown] and 100 % of control [survivor count not shown]
